Source: US20240174637A1, “DEGRADERS OF GRK2 AND USES THEREOF” (Sonata Therapeutics, Inc., priority 2021, published 2024)
The match of structure and compound is tentative.

Amino acid sequences for entries named in this document (tags omitted).
UniProt P25098, whole entry: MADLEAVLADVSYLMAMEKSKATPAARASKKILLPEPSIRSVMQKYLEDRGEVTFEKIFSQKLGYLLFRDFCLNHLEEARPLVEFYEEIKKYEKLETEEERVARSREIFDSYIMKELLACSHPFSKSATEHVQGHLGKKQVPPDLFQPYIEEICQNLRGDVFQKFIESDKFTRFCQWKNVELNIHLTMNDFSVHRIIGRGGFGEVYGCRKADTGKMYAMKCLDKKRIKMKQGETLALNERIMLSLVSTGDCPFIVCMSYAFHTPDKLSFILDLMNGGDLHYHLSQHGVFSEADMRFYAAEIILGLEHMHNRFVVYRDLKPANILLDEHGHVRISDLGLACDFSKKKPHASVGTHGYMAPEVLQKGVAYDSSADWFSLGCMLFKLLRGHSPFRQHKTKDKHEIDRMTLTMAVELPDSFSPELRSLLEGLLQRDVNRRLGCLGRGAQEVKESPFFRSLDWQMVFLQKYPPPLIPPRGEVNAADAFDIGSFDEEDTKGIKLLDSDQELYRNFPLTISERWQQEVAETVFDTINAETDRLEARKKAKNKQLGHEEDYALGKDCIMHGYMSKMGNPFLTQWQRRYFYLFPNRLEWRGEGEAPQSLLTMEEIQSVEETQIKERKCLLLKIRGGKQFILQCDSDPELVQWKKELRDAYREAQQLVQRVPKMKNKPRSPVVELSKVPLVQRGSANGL

Columns and labels:
PAXF1657 EV = assay: 7-day cellular proliferation assay (CellTiter-Glo), PAXF1657 EV; conditions: read-out: 7-day proliferation assay: IC50 GeoMean (uM) [Cell Line: PAXF1657 EV]
Description: (§1) In order to identify compounds specific for GRK2, we generated two isogenic cell line pairs of the pancreatic cancer cell line PAXF1657, a pair of cells stably overexpressing GRK2 cDNA or the control empty vector and a cell line pair of PAXF1657 GRK2 knockout clonal cells versus non-targeting control clonal cells.
(§2) Proliferation Assay: Cellular anti-proliferative activity of compounds was assessed by using the pancreatic cancer cell line, PAXF1657, stably overexpressing GRK2 cDNA or the control empty vector, as well as the parental urinary bladder cancer cell line, 5637. In addition, we also took advantage of GRK2 knockout cell lines that were generated via CRISPR. Cell lines were seeded into tissue culture treated, white-walled, 96-well plates at a density of 500 cells/well in RPMI1640 media supplemented with 10% H.I. FBS and penicillin/streptomycin. Plates were incubated overnight at 37° C., 5% CO2 to allow cells to adhere to the wells. […] At the time of compound addition, a set of plates, that were not treated with compounds, were collected and cell viability was measured using CellTiter-Glo (Promega). CellTiter-Glo reagent was added to the designed plates and luminescence was measuring using a Biotek Synergy plate reader. […] Cell viability was assessed and at end of the 7-day compound treatment by CellTiterGlo.

GRK2 [1] = target: T1, GRK2 (Homo sapiens, UniProt P25098); assay: GRK2 Degradation Assay and Western Blot in PAXF1657 cells
Description: General Protocol: Degradation Assay and Western Blot. PAXF1657 cells were plated in 6-well, 24-well plates or 60 mm tissue culture treated dishes and incubated at 37° C. until 70% confluency. The media was aspirated, and the cells were treated with fresh media containing the compounds in the concentration range of 0 μM to 10 μM for a period of 6 to 24 hours. At the desired time points the cells were washed twice with cold PBS and lysed with lysis buffer (ice cold PBS+1% NP40 with 1/100 protease/phosphatase inhibitors) on ice for 8 mins followed by sonication at 70% intensity pulses for 10 seconds. The cells were centrifuged at 20000 g for 8 min at 4° C. The supernatants were collected and stored at −80° C.
Samples were mixed with NuPAGE LDS sample buffer and NuPAGE sample reducing buffer (3×), vortexed and heated at 95° C. for 10 min, and then analyzed by SDS-PAGE (NuPAGE 4-12%) followed by transfer to nitrocellulose membrane. […] The membranes were washed three times with TBST and incubated with GRK2 or R-actin antibodies in 5% milk in TBST at 4° C. overnight. The membranes were washed three times with TBST and incubated with anti-mouse IgG-HRP or anti-rabbit IgG-HRP at room temperature for 2 hours in 5% milk in TBST. The membranes were washed three times with TBST and developed with ECL Dura, ECL femto or ECL atto substrates.

PAXF1657 KO Clone #4 = assay: 7-day cellular proliferation assay (CellTiter-Glo), PAXF1657 KO Clone #4; conditions: read-out: 7-day proliferation assay: IC50 GeoMean (uM) [Cell Line: PAXF1657 KO Clone #4]
Description: as §1, §2

GRK2 [2] = target: T1, GRK2; assay: GRK2 Inhibition Assay (TR-FRET, Example 1); conditions: read-out: Enzymatic GRK2 Assay: IC50 (nM) (Example 1), 7 μM ATP
Description: Assay: GRK2 enzyme (1 nM final concentration) was diluted in 25 mM HEPES, 10 mM MgCl2, 2 mM DTT, 0.01% Tween-20, and 1 mM EGTA. Then the GRK2 mixture was added into ProxiPlate-384 white plate and pre-incubated for 30 min with test compounds at room temperature. ATP (7 μM final concentration) and Ulight TopoIIα (50 nM final concentration) were added into the assay plate to initiate the reaction and the mixture was incubated at room temperature for 90 min. Then, Eu anti-TopoIIα (0.12 nM final concentration), BSA (0.01% final concentration), and EDTA (11 mM final concentration) in LANCE assay buffer were added into each well. After 60 min incubation time at room temperature, TR-FRET signal was measured by EnVision plate reader.

## CN[C@@H](C)C(=O)N[C@H](C(=O)N1CCC[C@H]1c1nc(C(=O)c2cccc(OCc3cn(CCCCCOc4cccc(CNC(=O)c5cccc(NCc6nnc(-c7ccncn7)n6C)c5)c4)nn3)c2)cs1)C1CCCCC1
PAXF1657 EV
  IC50: 1 to 10 µM
GRK2 [1]; 1 uM
  % GRK2 degradation at 1 uM in PAXF1657 EV (24 hrs): 66%
GRK2 [1]; 3 uM
  % GRK2 degradation at 3 uM in PAXF1657 EV (24 hrs): 70%
PAXF1657 KO Clone #4
  IC50: 1 to 10 µM
GRK2 [2]
  IC50: < 100 nM
